# Measured values published in PubChem BioAssay AID1671190 (National Center for Advancing Translational Sciences (NCATS), 2021).
# Sequences of proteins named here, by UniProt entry; tags and fusion partners are left off. A change or cut given only in a name is not applied to a line headed by its entry.
# UniProt P18054: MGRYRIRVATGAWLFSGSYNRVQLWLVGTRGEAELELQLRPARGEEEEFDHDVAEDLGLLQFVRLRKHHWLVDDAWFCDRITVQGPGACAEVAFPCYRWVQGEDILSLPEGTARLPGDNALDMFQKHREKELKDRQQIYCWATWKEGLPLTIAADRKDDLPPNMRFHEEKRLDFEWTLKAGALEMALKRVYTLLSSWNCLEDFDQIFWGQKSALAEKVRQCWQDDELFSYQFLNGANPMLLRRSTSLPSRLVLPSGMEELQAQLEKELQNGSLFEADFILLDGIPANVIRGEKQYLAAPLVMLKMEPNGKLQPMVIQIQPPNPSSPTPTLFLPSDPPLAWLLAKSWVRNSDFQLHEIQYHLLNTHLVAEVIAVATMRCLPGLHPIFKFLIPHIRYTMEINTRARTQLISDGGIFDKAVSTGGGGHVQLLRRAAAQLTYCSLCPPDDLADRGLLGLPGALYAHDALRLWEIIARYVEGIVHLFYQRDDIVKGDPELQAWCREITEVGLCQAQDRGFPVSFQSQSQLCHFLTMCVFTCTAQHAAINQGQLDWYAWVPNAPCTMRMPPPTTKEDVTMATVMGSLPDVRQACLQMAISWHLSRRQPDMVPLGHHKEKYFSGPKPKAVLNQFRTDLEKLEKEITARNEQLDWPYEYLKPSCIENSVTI
# In all, about 580,000 compounds went through this assay and about 6,100 (1.1%) were called active. This list was built around the results that the source calls inconclusive (neither active nor inactive); the mix of calls is not that of the screen. Calls follow the shape of the dose curve; as a rule, active = well fitted inhibition curve with a large enough effect; inconclusive = small, poorly fitted or top-dose-only effect, or another doubt; inactive = no such curve, though single readings can be large or run the other way. A potency beside an inconclusive call is a rough fit, not a confirmed value.
# Biological target: Polyunsaturated fatty acid lipoxygenase ALOX12 (Homo sapiens) (UniProt P18054)
# Test: Primary qHTS assay for inhibitors of human arachidonate 12S-lipoxygenase (ALOX12): Round 2
# Details: purified 12hLO, xylenol orange hydroperoxide absorbance; series mostly up to 108 µM
# Outline: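 Purified human 12hLO (150 nM final) in 25 mM Hepes, 0.01% Triton X-100, pH 7.0 was preincubated 15 min at room temperature with compound. Then 40 uM arachidonic acid was added, 30 min. Hydroperoxide was read by Fe-XO absorbance ratio 573/405 nm.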
# Potency is read from the fitted curve at half-maximal effect.
row,SMILES,Potency
1,CC(C)[C@H]1CN=C2N(C[C@H](C)NC(=O)CCC3CCCCC3)[C@H](Cc3ccc(O)cc3)CN21,"inconclusive: 79.4 µM [inhibitor, partial curve, poor fit]"
2,O=[N+]([O-])c1ccc2nc(NS(=O)(=O)c3ccc(F)cc3)sc2c1,"inconclusive: 50.1 µM [inhibitor, partial curve, poor fit]"
3,CCCCCOc1ccc(Br)cc1CSC(=N)N,"inconclusive: 44.7 µM [inhibitor, partial curve, poor fit]"
4,Cc1cc(C)n2nc(C(=O)N/N=C/c3ccccc3Cl)nc2n1,inactive
5,COc1ccc(N/C=C/C(=O)c2ccc(Br)cc2)cc1,"inconclusive: 44.7 µM [inhibitor, partial curve, poor fit]"
6,Brc1ccc(-c2cn3cc(Cc4ccccc4)sc3n2)cc1,"inconclusive: 126 µM [inhibitor, partial curve, poor fit]"
7,O=S(=O)(NNc1ncc(C(F)(F)F)cc1Cl)c1ccc(F)cc1F,"inconclusive: 0.316 µM [inhibitor, full curve, poor fit]"
8,FC(F)(F)c1ccccc1-c1ccc2ncnc(NCc3cccs3)c2c1,"inconclusive: 112 µM [inhibitor, partial curve, poor fit]"
9,O=C1c2ccccc2S(=O)(=O)N1Cc1nc(-c2cc(F)ccc2F)cs1,"inconclusive: 10 µM [inhibitor, partial curve, poor fit]"
10,CC1CCN(S(=O)(=O)c2ccc3[nH]ccc3c2)CC1,"inconclusive: 44.7 µM [inhibitor, partial curve, poor fit]"
11,COc1ccc(Nc2nc(-c3ccccc3O)nc3ccccc23)c(OC)c1,inactive
12,CC(C)S(=O)(=O)C1=NSC2=NC(=O)/C(=C\c3ccc(-c4ccccc4)o3)C(=N)N21,active: 25.1 µM
13,CCC(CO)Oc1cc(NC(=O)c2cccc(OC)c2)c2ncn(C(C)C)c2c1 (stereo not drawn),inactive
14,CCOC(=O)C(C)Sc1nc(-c2ccco2)cc(C(F)(F)F)c1C#N (stereo not drawn),"inconclusive: 100 µM [inhibitor, partial curve, poor fit]"
15,O=C(O)c1ccc(Nc2nc(-c3cc4ccccc4oc3=O)cs2)cc1,"inconclusive: 50.1 µM [inhibitor, partial curve, poor fit]"
16,Cc1cn2c(=O)c(S(=O)(=O)Nc3ccc(Br)cc3)c(C)nc2s1,"inconclusive: 50.1 µM [inhibitor, partial curve, poor fit]"
17,CCOC(=O)c1ccc(NC(=O)c2noc3c2CCCC3)cc1,inactive
18,COc1ccc(Nc2cc(C(=O)NCCCN3CCN(C)CC3)c3ccccc3n2)c(OC)c1,inactive

# Rewritten bar-delimited: 4 of the compounds above
row | SMILES | Potency
1 | CC(C)[C@H]1CN=C2N(C[C@H](C)NC(=O)CCC3CCCCC3)[C@H](Cc3ccc(O)cc3)CN21 | inconclusive: 79.4 µM [inhibitor, partial curve, poor fit]
2 | O=[N+]([O-])c1ccc2nc(NS(=O)(=O)c3ccc(F)cc3)sc2c1 | inconclusive: 50.1 µM [inhibitor, partial curve, poor fit]
3 | CCCCCOc1ccc(Br)cc1CSC(=N)N | inconclusive: 44.7 µM [inhibitor, partial curve, poor fit]
4 | Cc1cc(C)n2nc(C(=O)N/N=C/c3ccccc3Cl)nc2n1 | inactive
